From US20250154171A1, “RAS INHIBITORS” (Revolution Medicines, Inc., priority 2023, published 2025)
Some of these results come from one statement about several compounds together.

The chains behind the UniProt entries cited, without tags or fusion partners. Where a name states a change or a piece, a line headed by the entry shows the natural chain unless it says otherwise. Residues count along the entry.
UniProt P01116, 1-188 isoform P01116-2 G12V: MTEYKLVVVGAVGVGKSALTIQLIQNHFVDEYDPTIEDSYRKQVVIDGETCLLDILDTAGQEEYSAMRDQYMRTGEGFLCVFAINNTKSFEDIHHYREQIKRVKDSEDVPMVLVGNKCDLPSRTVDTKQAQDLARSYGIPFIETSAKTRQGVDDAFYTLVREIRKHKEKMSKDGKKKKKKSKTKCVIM
UniProt P62937, whole entry: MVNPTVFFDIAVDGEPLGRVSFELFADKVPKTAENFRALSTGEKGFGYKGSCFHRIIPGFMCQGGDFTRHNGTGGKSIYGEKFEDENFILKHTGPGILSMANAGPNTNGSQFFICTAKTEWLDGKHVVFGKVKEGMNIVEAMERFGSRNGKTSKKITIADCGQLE

Legend:
K-RasG12V = K-RasG12V (Homo sapiens, UniProt P01116+P62937, G12V); assay: Disruption of BRAF RBD interaction with K-Ras (TR-FRET / MOA assay), K-RasG12V; type: biochemical; conditions: TR-FRET with cyclophilin A and GST-BRAF RBD, read-out: IC50 with respect to K-RasG12V (disruption of BRAF RBD interaction)
Capan-1 (K-Ras G12V) = assay: CellTiter-Glo cell viability assay, Capan-1; type: cell-based, human; conditions: 5-day treatment, Capan-1 versus A375

For `CO[C@@H](C)c1ncc(C2CCN(C)CC2)cc1-c1c2c3cc(ccc3n1CCOC1CCOCC1)-c1csc(n1)[C@@H](N1CC3(COC3)C1)[C@H](NC(=O)[C@H]1OC[C@@H]1C)C(=O)N1CCC[C@H](N1)C(=O)OCC(C)(C)C2` (racemic) [Example A236], the IC50 (K-RasG12V) was under 1 µM and the “decrease in cell viability with respect to KRAS G12V (Capan-1) versus wild-type KRAS (A375)” value (“decrease in cell viability” below) (Capan-1 (K-Ras G12V)) was “greater decrease in cell viability”.

`CO[C@@H](C)c1ncc(C2CCN(C)CC2)cc1-c1c2c3cc(ccc3n1CCOC1CCOCC1)-c1csc(n1)[C@@H](N1CC3(COC3)C1)[C@H](NC(=O)[C@@H]1OC[C@@H]1C)C(=O)N1CCC[C@H](N1)C(=O)OCC(C)(C)C2` (racemic) [Example A237] was tested, and the IC50 (K-RasG12V) was under 1 µM and the “decrease in cell viability” value (Capan-1 (K-Ras G12V)) was “greater decrease in cell viability”.

For `COC1CN([C@@H]2c3nc(cs3)-c3ccc4c(c3)c(c(-c3cccnc3[C@H](C)OC)n4CCOC3CCOCC3)CC(C)(C)COC(=O)[C@@H]3CCCN(N3)C(=O)[C@H]2NC(=O)[C@H]2[C@H](C)[C@@H]2C)C1` (racemic) [Example A238], the IC50 (K-RasG12V) was under 1 µM and the “decrease in cell viability” value (Capan-1 (K-Ras G12V)) was “greater decrease in cell viability”.

In the case of `CO[C@@H](C)c1ncccc1-c1c2c3cc(ccc3n1CCOC1CCOCC1)-c1csc(n1)[C@@H](N1CC3(CCCO3)C1)[C@H](NC(=O)[C@H]1[C@H](C)[C@@H]1C)C(=O)N1CCC[C@H](N1)C(=O)OCC(C)(C)C2` (racemic) [Example A239], the IC50 (K-RasG12V) is reported as under 1 µM and the “decrease in cell viability” value (Capan-1 (K-Ras G12V)) is reported as “greater decrease in cell viability”.

With `CO[C@@H](C)c1ncc(C2CCN(C3COC3)CC2)cc1-c1c2c3cc(ccc3n1CCOC1CCOCC1)-c1csc(n1)[C@@H](N1CC3(CCC3)C1)[C@H](NC(=O)[C@H]1[C@H](C)[C@@H]1C)C(=O)N1CCC[C@H](N1)C(=O)OCC(C)(C)C2` (racemic) [Example A240] the IC50 (K-RasG12V) was under 1 µM and the “decrease in cell viability” value (Capan-1 (K-Ras G12V)) was “greater decrease in cell viability”.

For `C[C@@H]1OCCOCCn2c(c3c4cc(ccc42)-c2csc(n2)[C@@H](N2CC4(COC4)C2)[C@H](NC(=O)C24CC(C2)[C@H](C)O4)C(=O)N2N[C@H](C(=O)OCC(C)(C)C3)C3CC2C3)-c2cc(N3CCN(C4CC4)CC3)cnc21` (racemic) [Example A241], the IC50 (K-RasG12V) was under 1 µM and the “decrease in cell viability” value (Capan-1 (K-Ras G12V)) was “greater decrease in cell viability”.

For `CO[C@@H](C)c1ncc(C2CCN(C3CC3)CC2)cc1-c1c2c3cc(ccc3n1CCOC1CCOCC1)-c1csc(n1)[C@@H](N1CC3(COC3)C1)[C@H](NC(=O)[C@H]1OC[C@@H]1C)C(=O)N1CCC[C@H](N1)C(=O)OCC(C)(C)C2` (racemic) [Example A244], the IC50 (K-RasG12V) was under 1 µM and the “decrease in cell viability” value (Capan-1 (K-Ras G12V)) was “greater decrease in cell viability”.

For `CO[C@@H](C)c1ncccc1-c1c2c3cc(ccc3n1CCOC1CCOCC1)-c1csc(n1)[C@@H](N1CC(C)(OC)C1)[C@H](NC(=O)[C@H]1[C@H](C)[C@@H]1C)C(=O)N1CCC[C@H](N1)C(=O)OCC(C)(C)C2` (racemic) [Example A245], the IC50 (K-RasG12V) was under 1 µM and the “decrease in cell viability” value (Capan-1 (K-Ras G12V)) was “greater decrease in cell viability”.

`CO[C@@H](C)c1ncccc1-c1c2c3cc(ccc3n1CCOC1CCOCC1)-c1csc(n1)[C@@H](N1CC3(CCCOC3)C1)[C@H](NC(=O)[C@H]1[C@H](C)[C@@H]1C)C(=O)N1CCC[C@H](N1)C(=O)OCC(C)(C)C2` (racemic) [Example A246] was tested, and the IC50 (K-RasG12V) was under 1 µM and the “decrease in cell viability” value (Capan-1 (K-Ras G12V)) was “greater decrease in cell viability”.

`CO[C@@H](C)c1ncc(N2CCN(C)CC2)cc1-c1c2c3cc(ccc3n1CCOC1CCOCC1)-c1csc(n1)[C@@H](N1CC3(CCC3)C1)[C@H](NC(=O)[C@H]1[C@H](C)[C@@H]1C)C(=O)N1CCC[C@H](N1)C(=O)OCC(C)(C)C2` (racemic) [Example A247] was tested, and the IC50 (K-RasG12V) was under 1 µM and the “decrease in cell viability” value (Capan-1 (K-Ras G12V)) was “greater decrease in cell viability”.

In the case of `CO[C@@H](C)c1ncc(C2CCN(C3CC3)CC2)cc1-c1c2c3cc(ccc3n1CCO[C@H]1CCOC(C)(C)C1)-c1csc(n1)[C@@H](N1CC3(CCOC3)C1)[C@H](NC(=O)[C@H]1OC[C@@H]1C)C(=O)N1CCC[C@H](N1)C(=O)OCC(C)(C)C2` (racemic) [Example A248], the IC50 (K-RasG12V) is reported as under 1 µM and the “decrease in cell viability” value (Capan-1 (K-Ras G12V)) is reported as “greater decrease in cell viability”.

For `CO[C@@H](C)c1ncc(C2CCN(C3CC3)CC2)cc1-c1c2c3cc(ccc3n1CCO[C@H]1CCOC(C)(C)C1)-c1csc(n1)[C@@H](N1CC3(COC3)C1)[C@H](NC(=O)N1CC[C@H]1C)C(=O)N1CCC[C@H](N1)C(=O)OCC(C)(C)C2` (racemic) [Example A251], the IC50 (K-RasG12V) was under 1 µM and the “decrease in cell viability” value (Capan-1 (K-Ras G12V)) was “greater decrease in cell viability”.

In the case of `CO[C@@H](C)c1ncc(N2CCN(C3CC3)CC2)cc1-c1c2c3cc(ccc3n1CCO[C@H]1CCOC(C)(C)C1)-c1coc(n1)[C@@H](N1CC3(COC3)C1)[C@H](NC(=O)[C@H]1OC[C@@H]1C)C(=O)N1N[C@H](C(=O)OCC(C)(C)C2)C2CC1C2` (racemic) [Example A252], the IC50 (K-RasG12V) is reported as under 1 µM and the “decrease in cell viability” value (Capan-1 (K-Ras G12V)) is reported as “greater decrease in cell viability”.

`CO[C@@H](C)c1ncc(N2CCN(C3CC3)CC2)cc1-c1c2c3cc(ccc3n1CCO[C@H]1CCOC(C)(C)C1)-c1coc(n1)[C@@H](N1CC3(COC3)C1)[C@H](NC(=O)[C@H]1[C@H](C)[C@@H]1C)C(=O)N1N[C@H](C(=O)OCC(C)(C)C2)C2CC1C2` (racemic) [Example A253] was tested, and the IC50 (K-RasG12V) was under 1 µM and the “decrease in cell viability” value (Capan-1 (K-Ras G12V)) was “greater decrease in cell viability”.

`CO[C@@H](C)c1ncccc1-c1c2c3cc(ccc3n1CCO[C@H]1CCOC(C)(C)C1)-c1csc(n1)[C@@H](N1CC3(COC3)C1)[C@H](NC(=O)[C@H]1[C@H](C)[C@@H]1C)C(=O)N1N[C@H](C(=O)OCC(C)(C)C2)C2CC1C2` (racemic) [Example A254] was tested, and the IC50 (K-RasG12V) was under 1 µM and the “decrease in cell viability” value (Capan-1 (K-Ras G12V)) was “greater decrease in cell viability”.

In the case of `CO[C@@H](C)c1ncccc1-c1c2c3cc(ccc3n1C1CN(C)C1)-c1csc(n1)[C@@H](N1CC3(COC3)C1)[C@H](NC(=O)C13CC(C1)[C@H](C)O3)C(=O)N1N[C@H](C(=O)OCC(C)(C)C2)C2CC1C2` (racemic) [Example A256], the IC50 (K-RasG12V) is reported as under 1 µM and the “decrease in cell viability” value (Capan-1 (K-Ras G12V)) is reported as “greater decrease in cell viability”.

`CO[C@@H](C)c1ncc(C2CCN(C3CC3)CC2)cc1-c1c2c3cc(ccc3n1CCOC1CCOCC1)-c1csc(n1)[C@@H](N1CC3(COC3)C1)[C@H](NC(=O)[C@@H]1OC[C@@H]1C)C(=O)N1CCC[C@H](N1)C(=O)OCC(C)(C)C2` (racemic) [Example A257] was tested, and the IC50 (K-RasG12V) was under 1 µM and the “decrease in cell viability” value (Capan-1 (K-Ras G12V)) was “greater decrease in cell viability”.

`CO[C@@H](C)c1ncccc1-c1c2c3cc(ccc3n1CCOC1CCOCC1)-c1csc(n1)[C@@H](N1CC3(CCO3)C1)[C@H](NC(=O)[C@H]1[C@H](C)[C@@H]1C)C(=O)N1CCC[C@H](N1)C(=O)OCC(C)(C)C2` (racemic) [Example A258] was tested, and the IC50 (K-RasG12V) was under 1 µM and the “decrease in cell viability” value (Capan-1 (K-Ras G12V)) was “greater decrease in cell viability”.

For `CO[C@@H](C)c1ncc(C2CCN(C3CC3)CC2)cc1-c1c2c3cc(ccc3n1CCO[C@H]1CCOC(C)(C)C1)-c1csc(n1)[C@@H](N1CC3(CCC3)C1)[C@H](NC(=O)[C@@H]1OC[C@@H]1C)C(=O)N1CCC[C@H](N1)C(=O)OCC(C)(C)C2` (racemic) [Example A260], the IC50 (K-RasG12V) was under 1 µM and the “decrease in cell viability” value (Capan-1 (K-Ras G12V)) was “greater decrease in cell viability”.

`CO[C@@H](C)c1ncc(N2CCN(C3CC3)CC2)cc1-c1c2c3cc(ccc3n1CCO[C@H]1CCOC(C)(C)C1)-c1coc(n1)[C@@H](N1CCCC1)[C@H](NC(=O)C1[C@@H](C)[C@H]1c1ccccn1)C(=O)N1CC3CC(C3)(N1)C(=O)OCC(C)(C)C2` (mixture of isomers) [Example A261] was tested, and the IC50 (K-RasG12V) was under 1 µM and the “decrease in cell viability” value (Capan-1 (K-Ras G12V)) was “greater decrease in cell viability”.

`CO[C@@H](C)c1ncc(N2CCN(C3CC3)CC2)cc1-c1c2c3cc(ccc3n1CCO[C@H]1CCOC(C)(C)C1)-c1coc(n1)[C@@H](N1CC3(COC3)C1)[C@H](NC(=O)[C@@H]1[C@@H](C)[C@H]1c1cocn1)C(=O)N1N[C@H](C(=O)OCC(C)(C)C2)C2CC1C2` (racemic) [Example A263] was tested, and the IC50 (K-RasG12V) was under 1 µM and the “decrease in cell viability” value (Capan-1 (K-Ras G12V)) was “greater decrease in cell viability”.

In the case of `CO[C@@H](C)c1ncccc1-c1c2c3cc(ccc3n1CC(F)(F)F)-c1csc(n1)[C@@H](N1CC3(CCCOC3)C1)[C@H](NC(=O)C13CC(C1)[C@H](C)O3)C(=O)N1CCC[C@H](N1)C(=O)OCC(C)(C)C2` (racemic) [Example A265], the IC50 (K-RasG12V) is reported as under 1 µM and the “decrease in cell viability” value (Capan-1 (K-Ras G12V)) is reported as “greater decrease in cell viability”.

`CO[C@@H](C)c1ncccc1-c1c2c3cc(ccc3n1C1COC1)-c1csc(n1)[C@@H](N1CC3(CCCOC3)C1)[C@H](NC(=O)C13CC(C1)[C@H](C)O3)C(=O)N1CCC[C@H](N1)C(=O)OCC(C)(C)C2` (racemic) [Example A266] was tested, and the IC50 (K-RasG12V) was under 1 µM and the “decrease in cell viability” value (Capan-1 (K-Ras G12V)) was “greater decrease in cell viability”.

`CO[C@@H](C)c1ncc(C2CCN(C3CC3)CC2)cc1-c1c2c3cc(ccc3n1CCO[C@H]1CCOC(C)(C)C1)-c1csc(n1)[C@@H](N1CC3(CCOC3)C1)[C@H](NC(=O)C13CC(C1)[C@H](C)O3)C(=O)N1CCCC(N1)C(=O)OCC(C)(C)C2` (mixture of isomers) [Example A267] was tested, and the IC50 (K-RasG12V) was under 1 µM and the “decrease in cell viability” value (Capan-1 (K-Ras G12V)) was “greater decrease in cell viability”.

`CO[C@@H](C)c1ncc(C2CCN(C3CC3)CC2)cc1-c1c2c3cc(ccc3n1CCO[C@H]1CCOC(C)(C)C1)-c1csc(n1)[C@@H](N1CC3(CCO3)C1)[C@H](NC(=O)C13CC(C1)[C@H](C)O3)C(=O)N1CCC[C@H](N1)C(=O)OCC(C)(C)C2` (racemic) [Example A268] was tested, and the IC50 (K-RasG12V) was under 1 µM and the “decrease in cell viability” value (Capan-1 (K-Ras G12V)) was “greater decrease in cell viability”.
